For two substances, binding results are on record in doi:10.1101/2020.12.30.424835 (bioRxiv, 2020).

By UniProt entry, the sequences of proteins in these tests, tags left out. Where a name states a change or a piece, a line headed by the entry shows the natural chain unless it says otherwise.
UniProt P40537: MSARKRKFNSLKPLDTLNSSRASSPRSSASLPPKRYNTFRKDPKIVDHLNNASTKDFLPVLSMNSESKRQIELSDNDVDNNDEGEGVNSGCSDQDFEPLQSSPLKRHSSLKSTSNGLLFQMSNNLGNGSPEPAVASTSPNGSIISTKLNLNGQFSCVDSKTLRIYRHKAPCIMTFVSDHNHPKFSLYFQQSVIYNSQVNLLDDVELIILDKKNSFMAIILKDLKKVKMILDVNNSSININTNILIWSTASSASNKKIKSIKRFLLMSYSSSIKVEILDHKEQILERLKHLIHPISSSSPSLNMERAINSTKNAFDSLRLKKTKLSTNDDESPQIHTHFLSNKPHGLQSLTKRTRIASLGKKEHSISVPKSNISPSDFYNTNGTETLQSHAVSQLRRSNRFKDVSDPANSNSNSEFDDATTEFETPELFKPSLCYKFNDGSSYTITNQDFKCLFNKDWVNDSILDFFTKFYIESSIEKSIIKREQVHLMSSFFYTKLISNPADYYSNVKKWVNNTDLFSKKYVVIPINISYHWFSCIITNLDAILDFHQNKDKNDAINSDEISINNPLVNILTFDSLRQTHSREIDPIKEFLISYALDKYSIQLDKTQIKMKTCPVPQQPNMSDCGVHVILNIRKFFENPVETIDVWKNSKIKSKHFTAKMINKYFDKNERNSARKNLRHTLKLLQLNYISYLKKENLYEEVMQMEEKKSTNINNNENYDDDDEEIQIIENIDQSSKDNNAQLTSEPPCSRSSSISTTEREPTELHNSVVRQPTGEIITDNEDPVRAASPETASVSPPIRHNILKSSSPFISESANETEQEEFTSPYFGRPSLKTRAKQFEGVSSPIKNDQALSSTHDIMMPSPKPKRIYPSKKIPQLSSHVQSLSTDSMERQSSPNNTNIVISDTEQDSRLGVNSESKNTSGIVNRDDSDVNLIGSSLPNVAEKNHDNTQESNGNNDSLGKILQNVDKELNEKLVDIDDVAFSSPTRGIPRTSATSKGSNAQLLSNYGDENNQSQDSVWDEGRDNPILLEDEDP
UniProt Q12748: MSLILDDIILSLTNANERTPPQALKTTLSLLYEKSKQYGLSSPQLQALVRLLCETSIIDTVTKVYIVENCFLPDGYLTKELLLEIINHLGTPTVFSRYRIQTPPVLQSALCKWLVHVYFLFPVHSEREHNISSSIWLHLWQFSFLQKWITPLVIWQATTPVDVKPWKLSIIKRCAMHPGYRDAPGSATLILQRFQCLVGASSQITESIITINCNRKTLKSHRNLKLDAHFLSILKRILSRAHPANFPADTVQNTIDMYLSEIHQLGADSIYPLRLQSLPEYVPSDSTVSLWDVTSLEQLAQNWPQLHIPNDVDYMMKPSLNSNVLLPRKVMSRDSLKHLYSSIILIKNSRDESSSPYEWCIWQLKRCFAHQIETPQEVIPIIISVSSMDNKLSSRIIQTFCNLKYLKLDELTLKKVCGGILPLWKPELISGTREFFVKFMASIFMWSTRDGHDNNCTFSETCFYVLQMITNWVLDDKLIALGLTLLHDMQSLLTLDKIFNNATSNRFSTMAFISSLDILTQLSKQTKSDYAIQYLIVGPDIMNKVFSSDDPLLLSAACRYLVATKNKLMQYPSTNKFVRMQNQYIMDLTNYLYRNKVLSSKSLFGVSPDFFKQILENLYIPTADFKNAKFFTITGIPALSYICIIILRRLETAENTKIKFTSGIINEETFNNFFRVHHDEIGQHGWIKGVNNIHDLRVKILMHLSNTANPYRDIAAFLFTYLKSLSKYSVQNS
UniProt Q12262: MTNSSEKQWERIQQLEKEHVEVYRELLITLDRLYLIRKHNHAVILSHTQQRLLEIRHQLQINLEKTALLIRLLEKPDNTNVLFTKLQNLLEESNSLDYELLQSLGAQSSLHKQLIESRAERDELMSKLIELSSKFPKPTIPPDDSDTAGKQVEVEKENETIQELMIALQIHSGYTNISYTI
UniProt P47167: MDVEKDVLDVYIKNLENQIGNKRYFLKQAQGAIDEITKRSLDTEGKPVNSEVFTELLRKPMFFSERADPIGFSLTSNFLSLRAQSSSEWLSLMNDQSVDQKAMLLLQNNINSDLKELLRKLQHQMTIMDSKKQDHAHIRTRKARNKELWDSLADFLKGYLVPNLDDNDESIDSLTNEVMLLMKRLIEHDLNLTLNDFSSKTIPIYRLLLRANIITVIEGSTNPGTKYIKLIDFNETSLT

In experiment [1] the target is T1, GST-Ulp2-927-937 with 3A substitutions (V931A,L933A,I934A) (yeast) (UniProt P40537).
T1 sequence: DDSDANAAGSS
The experiment can be described thus: pull-down.

The target in experiment [2] is T2, GST-Ulp2-SIM (Ulp2-717-734) (yeast) (UniProt P40537).
T2 sequence: NYDDDDEEIQIIENIDQS
Nature of the experiment: pull-down.

Experiment [3] deals with T3, FITC-Ulp2-KIM peptide (fITC-AHA-…; Ulp2-927-937) (yeast).
T3 sequence (peptide, fITC-AHA on the N-terminus): DDSDVNLIGSS
Nature of the experiment: fluorescence polarisation. (Fluorescence polarisation rises when a labelled molecule tumbles more slowly, as on binding a larger partner.)

Results are given in words; binding and its absence hold for the method and conditions named. For part of these data: Where a sequence is shown, tags or fusion partners need not be part of it.

Consider “Ctf3 complex (Ctf3, Mcm16, Mcm22), wild type, recombinant (from UniProt Q12748;Q12262;P47167)”, for which the binding result in experiment [1] and in experiment [2] was “no binding” throughout.
Take “Ctf3c containing the Ctf3-2A protein (Ctf3-R594A,K596A) (from UniProt Q12748;Q12262;P47167) (complex)”: the binding result in experiment [3] is listed as “no binding”.
